Measurements reported in PubChem BioAssay AID1259254 (NCATS, 2017)
Screen: 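Genome-wide screen for genes that prevent DNA re-replication in cancer cells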 (primary screen). System: human HCT116 colorectal cancer cells. Knock-down reagent: single siRNA against human genes. Time to read-out: 3 days. Measured: 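Nuclei stained with Hoechst and imaged; cell-cycle phase assigned by DNA content; G2 share scaled per plate, non-targeting siRNA 0%, GMNN siRNA 100%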. Scale: G2 robust z-score and G2 cells, % of GMNN control: higher = more G2 cells, more excess DNA replication. Call rule: 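An siRNA counts as active if its G2 robust z-score lies at least 5 MADs above the screen median; here such calls match roughly 38% of GMNN control or more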.
This is a random part of about 59,000 reagents. About 1,550 of all reagents (2.6%) were called active. 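G2 share is only a proxy for re-replication; each gene was hit by three separate siRNAs, and active genes were retested.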 Unmarked entries are inactive. The numbers tell different reagents against one gene apart. Not all columns of the deposit are shown. No sequences are given here. The record does not give: the amount of reagent.

Silencing of ZNF551 #1 gave: G2 robust z-score 0.434; G2 cells, % of GMNN control 6.02. With knock-down of ZNF551 #2, the screen gave G2 robust z-score -0.0453; G2 cells, % of GMNN control 2.65. Knock-down of ZNF551 #3 gave: G2 robust z-score 3.63; G2 cells, % of GMNN control 28.5. Knock-down of C1orf21 #1 gave: G2 robust z-score 5.9 (active); G2 cells, % of GMNN control 44.5. C1orf21 #2 scored G2 robust z-score 0.534; G2 cells, % of GMNN control 6.73. Silencing of C1orf21 #3 gave: G2 robust z-score -0.503; G2 cells, % of GMNN control -0.574.

Against CTSZ #1, the entry reads G2 robust z-score 0.0245; G2 cells, % of GMNN control 3.14. For CTSZ #2 the deposit lists G2 robust z-score 0.547; G2 cells, % of GMNN control 6.82. CTSZ #3 gave G2 robust z-score 0.0782; G2 cells, % of GMNN control 3.52.

4 of these entries, set out differently:
| gene knocked down | siRNA no. | G2 robust z-score | G2 cells, % of GMNN control |
| --- | --- | --- | --- |
| ZNF551 | 2 | -0.0453 | 2.65 |
| ZNF551 | 3 | 3.63 | 28.5 |
| C1orf21 | 1 | 5.9 (active) | 44.5 |
| C1orf21 | 2 | 0.534 | 6.73 |

The listing continues:
After knock-down of SMAP2 #1, the record shows G2 robust z-score -1.13; G2 cells, % of GMNN control -4.98. Depletion of SMAP2 #2 resulted in: G2 robust z-score 1.52; G2 cells, % of GMNN control 13.6. Against SMAP2 #3 the deposit lists G2 robust z-score -1.09; G2 cells, % of GMNN control -4.73. With knock-down of CHRND #1, the screen gave G2 robust z-score 0.918; G2 cells, % of GMNN control 9.42. Knock-down of CHRND #2 came out at: G2 robust z-score -1.19; G2 cells, % of GMNN control -5.43. Silencing of CHRND #3 gave: G2 robust z-score -0.833; G2 cells, % of GMNN control -2.89.

After knock-down of OR5P3 #1 the results were G2 robust z-score -0.949; G2 cells, % of GMNN control -3.71. After knock-down of OR5P3 #2 the results were G2 robust z-score 3.31; G2 cells, % of GMNN control 26.3. OR5P3 #3 scored G2 robust z-score -1.04; G2 cells, % of GMNN control -4.33. Against RGPD5 #1, the entry reads G2 robust z-score 0.131; G2 cells, % of GMNN control 3.89. RGPD5 #2 gave G2 robust z-score 1.03; G2 cells, % of GMNN control 10.2. RGPD5 #3 scored G2 robust z-score 1.22; G2 cells, % of GMNN control 11.5.

IL2RB #1 showed G2 robust z-score -1.11; G2 cells, % of GMNN control -4.84. With knock-down of IL2RB #2, the screen gave G2 robust z-score 0.335; G2 cells, % of GMNN control 5.32. IL2RB #3 scored G2 robust z-score 1.35; G2 cells, % of GMNN control 12.4.
